Test results: PMC12891040
Results are given in words; binding and its absence hold for the method and conditions named. Binding seen in cells or lysates may run through a third protein. Binding can be weak; no strength is given.

Target: T1, Arabidopsis nuclear protein GLK1-cEYFP (Arabidopsis) (UniProt Q9SIV3)
T1 sequence: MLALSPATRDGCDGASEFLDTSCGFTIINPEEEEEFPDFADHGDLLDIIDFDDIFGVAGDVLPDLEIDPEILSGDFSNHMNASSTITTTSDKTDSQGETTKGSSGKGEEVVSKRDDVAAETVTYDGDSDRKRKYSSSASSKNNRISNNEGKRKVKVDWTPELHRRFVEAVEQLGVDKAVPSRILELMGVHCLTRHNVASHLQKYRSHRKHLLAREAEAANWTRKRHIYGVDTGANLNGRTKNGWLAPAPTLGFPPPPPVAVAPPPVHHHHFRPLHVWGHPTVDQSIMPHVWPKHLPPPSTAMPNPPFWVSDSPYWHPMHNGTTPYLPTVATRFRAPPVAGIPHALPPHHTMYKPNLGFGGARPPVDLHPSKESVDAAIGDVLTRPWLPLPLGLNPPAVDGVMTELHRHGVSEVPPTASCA
Assay: split reporter; BiFC with nEYFP and cEYFP fusions transiently coexpressed in N. benthamiana leaf epidermal cells; confocal microscopy

- binding: binds
Substance: Arabidopsis BPG4-nEYFP
